No constants are given. Whether binding was seen depends on the method and setting. For part of these data: In cells and extracts the contact can be indirect. Some results given as binding are weak or reduced against the parent protein; the word gives no strength. Tags and fused reporters may be left off the sequences shown. One block for each binder: values may come before it.
Assays:
[1] = biological target: T1, mitochondria-targeted Par6^Cter (UniProt Q9NPB6); assay: relocalisation to mitochondria
T1 sequence: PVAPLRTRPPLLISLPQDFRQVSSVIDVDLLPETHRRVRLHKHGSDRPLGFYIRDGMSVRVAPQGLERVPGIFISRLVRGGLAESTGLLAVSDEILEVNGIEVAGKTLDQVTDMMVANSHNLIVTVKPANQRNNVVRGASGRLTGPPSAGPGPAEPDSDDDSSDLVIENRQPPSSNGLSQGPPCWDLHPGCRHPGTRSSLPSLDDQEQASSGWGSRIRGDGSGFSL

[2] = biological target: T2, mitochondria-targeted Par6A^Nter (UniProt Q9NPB6); assay: relocalisation to mitochondria
T2 sequence: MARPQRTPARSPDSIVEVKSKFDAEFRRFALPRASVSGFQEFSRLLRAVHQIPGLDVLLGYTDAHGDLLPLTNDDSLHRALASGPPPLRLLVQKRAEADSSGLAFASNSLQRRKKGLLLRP

[3] = biological target: T3, GST-Par6^Nter (UniProt Q9NPB6); assay: pull-down
T3 sequence: T2 sequence

binding [1]: binds
B1: GFP-Par6A^Nter (domain or fragment, UniProt Q9NPB6 1-121)
chain: T2 sequence

binding [2]: binds
B2: GFP-Par6A^Cter (domain or fragment, UniProt Q9NPB6 121-346)
chain: T1 sequence

binding [3]: binds
B3: PC-Par6^Cter (domain or fragment, UniProt Q9NPB6 121-346)
chain: T1 sequence

Reference: paper doi:10.1101/2022.03.15.484321
